# Values of other authors in US20240251794A1, “USE OF QUASSIA-EXTRACT FOR A SEED TREATMENT AS INSECTICIDE” (KWS SAAT SE & Co. KGaA, priority 2021, published 2024).
smiles,measurement,setting,value
"COC1=C[C@@H](C)[C@@H]2C[C@H]3OC(=O)C[C@H]4C(C)=C(OC)C(=O)[C@H]([C@@]2(C)C1=O)[C@@]34C [Quassin, 2,12-dimethoxypicrasa-2,12-diene-1,11,16-trione]",more bitter than caffeine,relative to caffeine,1670 times
same,more bitter than quinine,relative to quinine,50 times
